The list shows a part of the results.

Amino acid sequences for entries named in this document (tags omitted). A change or cut given only in a name is not applied to a line headed by its entry.
UniProt Q53H12: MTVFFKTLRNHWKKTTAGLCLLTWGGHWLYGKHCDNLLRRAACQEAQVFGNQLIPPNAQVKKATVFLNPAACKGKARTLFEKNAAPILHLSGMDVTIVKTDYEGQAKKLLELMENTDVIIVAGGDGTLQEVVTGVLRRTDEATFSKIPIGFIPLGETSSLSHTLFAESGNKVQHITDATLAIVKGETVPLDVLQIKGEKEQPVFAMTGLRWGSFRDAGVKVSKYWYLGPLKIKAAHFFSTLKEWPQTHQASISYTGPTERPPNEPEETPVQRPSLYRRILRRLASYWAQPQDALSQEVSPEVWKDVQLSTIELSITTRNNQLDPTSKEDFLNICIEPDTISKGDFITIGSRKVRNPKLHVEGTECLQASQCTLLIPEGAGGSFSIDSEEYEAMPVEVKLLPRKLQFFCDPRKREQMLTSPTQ
UniProt Q6NS38: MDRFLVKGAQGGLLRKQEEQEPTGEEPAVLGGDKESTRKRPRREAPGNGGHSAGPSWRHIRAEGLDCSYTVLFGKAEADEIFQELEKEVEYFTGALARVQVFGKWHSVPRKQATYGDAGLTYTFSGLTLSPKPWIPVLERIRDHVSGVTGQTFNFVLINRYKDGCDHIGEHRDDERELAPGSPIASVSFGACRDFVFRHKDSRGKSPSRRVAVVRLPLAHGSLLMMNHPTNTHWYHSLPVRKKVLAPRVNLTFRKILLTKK
UniProt Q5I7T1: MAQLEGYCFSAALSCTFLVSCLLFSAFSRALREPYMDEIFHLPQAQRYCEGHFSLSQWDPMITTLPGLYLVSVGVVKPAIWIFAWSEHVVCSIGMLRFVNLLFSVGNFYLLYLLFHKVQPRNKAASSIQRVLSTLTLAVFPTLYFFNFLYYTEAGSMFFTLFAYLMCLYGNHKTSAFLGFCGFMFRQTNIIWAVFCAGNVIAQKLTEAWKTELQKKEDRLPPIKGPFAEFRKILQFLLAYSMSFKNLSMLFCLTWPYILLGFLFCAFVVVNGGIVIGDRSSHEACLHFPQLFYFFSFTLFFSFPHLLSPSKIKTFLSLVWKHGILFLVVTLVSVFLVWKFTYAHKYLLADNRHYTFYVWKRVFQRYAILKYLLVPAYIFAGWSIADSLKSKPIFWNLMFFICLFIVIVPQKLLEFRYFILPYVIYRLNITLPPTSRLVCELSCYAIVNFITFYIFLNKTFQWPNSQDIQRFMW
UniProt Q02952: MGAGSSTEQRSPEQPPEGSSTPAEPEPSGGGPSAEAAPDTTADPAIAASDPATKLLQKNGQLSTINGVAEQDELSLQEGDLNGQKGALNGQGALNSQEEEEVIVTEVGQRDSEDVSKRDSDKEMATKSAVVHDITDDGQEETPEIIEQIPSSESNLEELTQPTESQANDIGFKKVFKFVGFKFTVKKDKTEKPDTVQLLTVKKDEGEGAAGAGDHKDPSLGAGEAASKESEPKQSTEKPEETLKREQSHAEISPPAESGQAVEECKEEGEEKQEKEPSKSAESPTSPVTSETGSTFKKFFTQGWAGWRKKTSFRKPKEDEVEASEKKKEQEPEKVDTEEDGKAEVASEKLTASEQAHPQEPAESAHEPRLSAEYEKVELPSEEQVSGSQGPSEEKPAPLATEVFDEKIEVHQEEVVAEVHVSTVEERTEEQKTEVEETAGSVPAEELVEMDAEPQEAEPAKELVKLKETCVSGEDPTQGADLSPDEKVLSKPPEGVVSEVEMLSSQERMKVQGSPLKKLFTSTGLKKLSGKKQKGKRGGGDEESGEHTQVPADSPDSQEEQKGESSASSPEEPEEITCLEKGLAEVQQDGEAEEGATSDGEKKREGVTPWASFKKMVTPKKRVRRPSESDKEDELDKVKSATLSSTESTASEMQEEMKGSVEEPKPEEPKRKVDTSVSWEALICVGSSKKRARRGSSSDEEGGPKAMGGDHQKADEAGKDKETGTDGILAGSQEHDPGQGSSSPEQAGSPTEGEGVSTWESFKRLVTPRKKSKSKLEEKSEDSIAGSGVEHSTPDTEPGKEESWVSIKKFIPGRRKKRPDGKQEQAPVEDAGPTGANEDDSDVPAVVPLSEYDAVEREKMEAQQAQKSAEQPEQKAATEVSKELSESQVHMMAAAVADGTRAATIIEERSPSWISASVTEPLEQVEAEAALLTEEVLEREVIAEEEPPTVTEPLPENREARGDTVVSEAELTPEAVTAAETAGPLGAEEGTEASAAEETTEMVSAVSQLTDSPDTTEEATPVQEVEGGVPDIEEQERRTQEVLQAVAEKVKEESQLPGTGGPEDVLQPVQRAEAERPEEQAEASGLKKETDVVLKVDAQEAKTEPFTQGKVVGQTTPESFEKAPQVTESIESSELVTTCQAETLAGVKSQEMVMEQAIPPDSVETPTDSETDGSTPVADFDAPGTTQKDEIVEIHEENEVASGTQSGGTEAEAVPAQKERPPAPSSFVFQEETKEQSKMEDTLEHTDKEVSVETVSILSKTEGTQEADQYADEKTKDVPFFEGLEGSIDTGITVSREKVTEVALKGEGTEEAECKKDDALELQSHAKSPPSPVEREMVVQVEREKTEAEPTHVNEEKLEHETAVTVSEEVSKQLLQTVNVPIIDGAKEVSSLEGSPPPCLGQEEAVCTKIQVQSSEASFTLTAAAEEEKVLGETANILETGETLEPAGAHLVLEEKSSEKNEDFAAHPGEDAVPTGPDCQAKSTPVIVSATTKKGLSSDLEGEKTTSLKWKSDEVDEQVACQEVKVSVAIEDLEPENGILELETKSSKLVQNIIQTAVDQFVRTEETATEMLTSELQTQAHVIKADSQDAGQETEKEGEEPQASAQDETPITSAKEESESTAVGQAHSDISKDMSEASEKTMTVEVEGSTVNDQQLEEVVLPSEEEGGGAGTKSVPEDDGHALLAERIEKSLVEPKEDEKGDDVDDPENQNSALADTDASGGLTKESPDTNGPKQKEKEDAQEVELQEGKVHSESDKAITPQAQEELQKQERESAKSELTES
UniProt P52895: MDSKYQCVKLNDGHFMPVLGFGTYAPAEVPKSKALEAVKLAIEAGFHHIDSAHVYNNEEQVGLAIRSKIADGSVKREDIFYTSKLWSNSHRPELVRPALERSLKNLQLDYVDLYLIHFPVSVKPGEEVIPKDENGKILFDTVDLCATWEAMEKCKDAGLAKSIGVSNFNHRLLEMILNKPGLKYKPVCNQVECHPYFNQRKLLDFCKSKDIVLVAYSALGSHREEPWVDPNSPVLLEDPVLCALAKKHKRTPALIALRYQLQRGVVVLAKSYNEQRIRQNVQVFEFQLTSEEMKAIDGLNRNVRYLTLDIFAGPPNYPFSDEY
UniProt Q2TAA5: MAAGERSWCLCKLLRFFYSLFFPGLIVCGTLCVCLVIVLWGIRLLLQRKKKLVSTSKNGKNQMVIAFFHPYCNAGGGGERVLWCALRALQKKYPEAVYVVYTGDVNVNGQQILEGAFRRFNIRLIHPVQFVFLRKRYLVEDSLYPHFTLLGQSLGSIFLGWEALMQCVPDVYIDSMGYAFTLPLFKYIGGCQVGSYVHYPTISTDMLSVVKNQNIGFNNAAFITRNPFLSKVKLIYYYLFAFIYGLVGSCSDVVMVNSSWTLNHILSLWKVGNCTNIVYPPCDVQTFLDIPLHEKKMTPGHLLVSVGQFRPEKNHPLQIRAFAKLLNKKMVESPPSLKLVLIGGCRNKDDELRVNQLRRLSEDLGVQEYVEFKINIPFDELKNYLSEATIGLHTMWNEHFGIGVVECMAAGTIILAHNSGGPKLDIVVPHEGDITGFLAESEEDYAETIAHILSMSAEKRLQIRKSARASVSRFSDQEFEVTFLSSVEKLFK
UniProt Q9NXW9: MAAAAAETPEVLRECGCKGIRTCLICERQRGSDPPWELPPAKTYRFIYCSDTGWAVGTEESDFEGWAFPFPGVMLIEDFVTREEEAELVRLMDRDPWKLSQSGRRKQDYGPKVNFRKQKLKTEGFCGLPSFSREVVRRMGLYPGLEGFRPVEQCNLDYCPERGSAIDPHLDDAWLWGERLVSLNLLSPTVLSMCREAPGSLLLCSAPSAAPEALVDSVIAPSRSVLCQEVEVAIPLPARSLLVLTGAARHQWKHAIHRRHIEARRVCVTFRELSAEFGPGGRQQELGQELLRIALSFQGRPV
UniProt O94788: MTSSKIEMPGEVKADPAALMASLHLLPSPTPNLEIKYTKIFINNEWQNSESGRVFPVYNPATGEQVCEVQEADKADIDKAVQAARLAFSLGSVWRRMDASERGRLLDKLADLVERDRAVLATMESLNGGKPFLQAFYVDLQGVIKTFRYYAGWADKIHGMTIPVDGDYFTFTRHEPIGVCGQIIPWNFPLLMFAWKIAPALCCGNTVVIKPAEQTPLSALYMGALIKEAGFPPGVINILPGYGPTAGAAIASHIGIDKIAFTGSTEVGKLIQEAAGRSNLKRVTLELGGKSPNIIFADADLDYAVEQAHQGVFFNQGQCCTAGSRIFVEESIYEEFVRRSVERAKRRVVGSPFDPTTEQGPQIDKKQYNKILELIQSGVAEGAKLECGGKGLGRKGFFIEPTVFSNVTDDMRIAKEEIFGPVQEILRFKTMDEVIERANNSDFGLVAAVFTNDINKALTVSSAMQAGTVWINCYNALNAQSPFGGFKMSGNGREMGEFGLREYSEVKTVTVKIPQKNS
UniProt Q92667: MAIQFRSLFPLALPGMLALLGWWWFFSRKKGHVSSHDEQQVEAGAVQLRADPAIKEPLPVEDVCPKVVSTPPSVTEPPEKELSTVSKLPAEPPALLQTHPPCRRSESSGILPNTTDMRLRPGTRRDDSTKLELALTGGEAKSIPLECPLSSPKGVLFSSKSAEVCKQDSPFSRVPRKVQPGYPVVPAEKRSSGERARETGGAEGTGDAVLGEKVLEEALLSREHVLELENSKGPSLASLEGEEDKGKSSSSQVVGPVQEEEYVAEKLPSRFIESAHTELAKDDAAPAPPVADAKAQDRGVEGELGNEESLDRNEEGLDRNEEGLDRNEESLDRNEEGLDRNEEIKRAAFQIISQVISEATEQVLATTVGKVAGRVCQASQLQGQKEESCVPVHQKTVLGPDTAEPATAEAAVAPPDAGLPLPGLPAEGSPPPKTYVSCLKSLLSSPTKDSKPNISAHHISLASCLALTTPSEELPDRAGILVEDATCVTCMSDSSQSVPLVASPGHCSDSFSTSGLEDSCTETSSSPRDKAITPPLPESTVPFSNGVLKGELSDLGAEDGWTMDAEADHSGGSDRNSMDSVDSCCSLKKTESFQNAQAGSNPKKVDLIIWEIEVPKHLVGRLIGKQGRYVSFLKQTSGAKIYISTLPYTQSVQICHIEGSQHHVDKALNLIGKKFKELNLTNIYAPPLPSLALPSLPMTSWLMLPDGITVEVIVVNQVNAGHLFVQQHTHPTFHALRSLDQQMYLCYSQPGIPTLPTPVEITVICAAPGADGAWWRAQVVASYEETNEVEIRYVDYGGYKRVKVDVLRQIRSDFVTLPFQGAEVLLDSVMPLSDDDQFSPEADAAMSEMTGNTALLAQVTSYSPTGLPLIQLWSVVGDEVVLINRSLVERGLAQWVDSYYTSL
UniProt Q8N142: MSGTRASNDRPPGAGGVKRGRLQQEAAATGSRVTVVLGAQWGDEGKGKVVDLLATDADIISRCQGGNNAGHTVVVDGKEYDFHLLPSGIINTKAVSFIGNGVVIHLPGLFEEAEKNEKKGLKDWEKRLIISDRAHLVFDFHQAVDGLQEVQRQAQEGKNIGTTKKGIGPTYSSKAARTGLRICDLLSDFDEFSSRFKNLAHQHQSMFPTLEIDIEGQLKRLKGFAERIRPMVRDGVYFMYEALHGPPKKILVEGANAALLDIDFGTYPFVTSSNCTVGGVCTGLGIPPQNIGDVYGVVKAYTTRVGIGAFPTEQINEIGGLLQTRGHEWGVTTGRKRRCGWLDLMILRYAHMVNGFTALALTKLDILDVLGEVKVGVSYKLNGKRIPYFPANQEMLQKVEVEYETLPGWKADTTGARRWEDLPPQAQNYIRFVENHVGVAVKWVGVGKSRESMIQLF
UniProt Q9UIJ7: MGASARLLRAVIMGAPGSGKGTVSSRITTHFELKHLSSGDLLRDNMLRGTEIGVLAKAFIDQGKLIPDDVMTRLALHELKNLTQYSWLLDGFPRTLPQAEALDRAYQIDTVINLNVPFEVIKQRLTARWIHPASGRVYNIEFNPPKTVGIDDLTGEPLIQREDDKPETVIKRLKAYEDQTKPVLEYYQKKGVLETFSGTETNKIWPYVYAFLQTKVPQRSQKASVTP
UniProt P51857: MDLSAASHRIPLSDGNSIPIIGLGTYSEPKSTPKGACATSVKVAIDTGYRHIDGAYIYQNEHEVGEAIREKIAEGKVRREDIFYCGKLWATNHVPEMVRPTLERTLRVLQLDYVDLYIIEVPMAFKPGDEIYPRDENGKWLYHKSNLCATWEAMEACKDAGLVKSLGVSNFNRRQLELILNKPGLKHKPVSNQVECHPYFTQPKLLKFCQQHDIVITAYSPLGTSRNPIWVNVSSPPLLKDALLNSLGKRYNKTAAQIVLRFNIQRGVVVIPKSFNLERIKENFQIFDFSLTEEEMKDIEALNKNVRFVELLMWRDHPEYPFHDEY

Compound in the experiment: CC1=C2C(=CC=C1)N=C(N(C2=O)C3=CC=CC=C3C)CN4C=NC5=C(N=CN=C54)N
As to the kind of experiment: log2 fold change, soluble protein after heating vs DMSO (PISA); higher = thermal stabilisation; K562 cells, 10 uM, 30 min; active = over 0.2 and 3.5 SD of the protein, either way, in both replicates (recomputed). Summed up: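 K562 cells (2×10^6 cells/mL) were treated with 10 μM compound for 30 min, and aliquots were heated for 3 min over 48°C-58°C. Pooled aliquots were extracted in PBS with 0.5% NP-40 at 4°C, and the supernatant after 21,000xg for 90 min was measured by TMTpro 16plex LC-MS/MS with channel sums equalised. Reported thermal stability, relative to control samples and from duplicates, is a log2 fold change.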
For AGK (UniProt Q53H12), the log2 fold change was inactive: -0.002. Turning to ALKBH2 (UniProt Q6NS38), the log2 fold change is inactive: -0.022. Next, ALG10B (UniProt Q5I7T1): inactive: -0.048; AKT2 (UniProt P31751): inactive: 0.061; ADD2 (UniProt P35612): inactive: 0.014. As to AKAP12 (UniProt Q02952), the log2 fold change is inactive: -0.005. Consider AKR1C2 (UniProt P52895), for which the log2 fold change was inactive: 0.086. The figure for ALG11 (UniProt Q2TAA5) is inactive: 0.144. The figure for AIFM1 (UniProt O95831) is inactive: 0.055.

ALKBH4 (UniProt Q9NXW9): the log2 fold change is inactive: -0.078. The figure for ALDH1A2 (UniProt O94788) is inactive: 0.014; for AKAP1 (UniProt Q92667) it is inactive: 0.05. The figure for ADSS1 (UniProt Q8N142) is inactive: 0.062. In the case of AK3 (UniProt Q9UIJ7), the log2 fold change was inactive: 0.015. Consider ALDH1B1 (UniProt P30837), for which the log2 fold change was inactive: 0.013. The figure for AKR1D1 (UniProt P51857) is inactive: 0.13.

These data come from the supplement of paper PMC10849652.
